Measured values reported in publication PMC8879615.
These are yes or no findings as the source states them, for the method shown. In cells and extracts the contact can be indirect. Some results given as binding are weak or reduced against the parent protein; the word gives no strength.

Amino acid sequences for entries named in this document (tags omitted). A change or cut given only in a name is not applied to a line headed by its entry.
UniProt P70536: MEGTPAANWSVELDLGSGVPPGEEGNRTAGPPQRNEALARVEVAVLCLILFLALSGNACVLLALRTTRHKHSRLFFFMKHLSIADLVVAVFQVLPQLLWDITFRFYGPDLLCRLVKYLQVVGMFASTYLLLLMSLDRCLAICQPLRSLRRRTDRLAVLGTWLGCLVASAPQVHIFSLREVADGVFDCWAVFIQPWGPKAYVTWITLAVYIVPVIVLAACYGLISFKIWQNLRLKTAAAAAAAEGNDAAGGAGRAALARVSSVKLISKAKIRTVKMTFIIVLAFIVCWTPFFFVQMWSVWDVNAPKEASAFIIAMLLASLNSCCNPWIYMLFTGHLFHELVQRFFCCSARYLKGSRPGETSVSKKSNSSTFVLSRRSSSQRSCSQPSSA
UniProt P30543: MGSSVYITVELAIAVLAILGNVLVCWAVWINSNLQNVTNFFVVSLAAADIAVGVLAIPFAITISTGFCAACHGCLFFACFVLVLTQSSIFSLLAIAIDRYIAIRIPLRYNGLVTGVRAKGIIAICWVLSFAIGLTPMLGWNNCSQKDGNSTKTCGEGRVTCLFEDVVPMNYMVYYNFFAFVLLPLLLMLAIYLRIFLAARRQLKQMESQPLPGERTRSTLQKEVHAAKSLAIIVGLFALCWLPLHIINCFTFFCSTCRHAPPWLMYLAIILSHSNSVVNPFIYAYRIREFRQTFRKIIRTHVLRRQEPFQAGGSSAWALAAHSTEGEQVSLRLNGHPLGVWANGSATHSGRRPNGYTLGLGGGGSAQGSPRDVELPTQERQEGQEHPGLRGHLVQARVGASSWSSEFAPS

Experiments:
[1] = target: oxytocin receptor (rat (endogenous in striatal gliosomes and brain slices)) (UniProt P70536); assay: proximity ligation; in situ PLA (Duolink) on 10–15 µm rat hemibrain slices, mouse anti-A2A and rabbit anti-OTR primary antibodies; confocal microscopy with GFAP and ezrin staining; ventral striatum
[2] = target: oxytocin receptor (rat (endogenous in striatal gliosomes and brain slices)) (UniProt P70536); assay: co-IP; Triton X-100-soluble membrane proteins (300 µg) of rat striatal gliosomes, precleared, 1 µg anti-A2A or anti-OTR antibody overnight at 4 °C, protein G-sepharose; 50 mM sodium borate, 0.1 mM EDTA, pH 7.5, 0.2% Triton-X; immunoblot of IP and output
[3] = target: adenosine A2A receptor (rat (endogenous in striatal gliosomes and brain slices)) (UniProt P30543); assay: as above

binding [1]	binding [2]	binding [3]	Molecule
binds	binds		adenosine A2A receptor (from UniProt P30543 1-410)
		binds	oxytocin receptor (from UniProt P70536 1-388)
	binds	binds	flotillin-1 (protein, UniProt Q9Z1E1 1-428) MFFTCGPNEAMVVSGFCRSPPVMVAGGRVFVLPCIQQIQRISLNTLTLNVKSEKVYTRHGVPISVTGIAQVKIQGQNKEMLAAACQMFLGKTEAEIAHIALETLEGHQRAIMAHMTVEEIYKDRQKFSEQVFKVASSDLVNMGISVVSYTLKDIHDDQDYLHSLGKARTAQVQKDARIGEAEAKRDAGIREAKAKQEKVSAQCLSEIEMAKAQRDYELKKATYDIEVNTRRAQADLAYQLQVAKTKQQIEEQRVQVQVVERAQQVAVQEQEIARREKELEARVRKPAEAERYRLERLAEAEKAQLIMQAEAEAESVRMRGEAEAFAVGARARAEAEQMAKKAEAFQMYQEAAQLDMLLEKLPQVAEEISGPLTSANKITLVSSGSGTMGAAKVTGEVLDILSRLPESVERLTGVSISQVNHNKPLRTA
